Measured values taken from PubChem BioAssay AID493014 (National Center for Advancing Translational Sciences (NCATS), 2011).
Out of some 340,000 compounds screened, about 170 (0.05%) were called active. The inconclusive results got no clear call from the source; some entries with a clear call stand among them for comparison. Calls follow the shape of the dose curve; as a rule, active = well fitted inhibition curve with a large enough effect in the signal ratio, with a control signal flat (not every such curve was filed as active); inconclusive = small, poorly fitted or top-dose-only effect, or effect the other way, or a change in a side signal; inactive = flat fitted curve, though single readings scatter; the % refers to the signal ratio. Where the call is inconclusive, the potency comes from a doubtful curve fit.

Experiment: qHTS Assay to Find Inhibitors of Chronic Active B-Cell Receptor Signaling;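 as to activity change, negative = inhibition: plate controls were basal doxycycline-induced cells for no effect and cells given 10 µM MG132 for full effect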
Conditions: ABC-DLBCL IkBa-CBG/CBR reporter, luminescence ratio (green luciferase fused to IkBa over red control in TMD8 lymphoma cells), 4 h; activity change, negative = inhibition: at 46.1 µM (top of the series)
Summary of the method: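 TMD8 human ABC-DLBCL cells with doxycycline-inducible IκBα–green luciferase fusion and unfused red luciferase, in 0.5% FBS medium; compounds up to 46 uM, 4 h at 37C. Green/red luminescence ratio, filter-overlap corrected, fitted to concentration-response curves.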
Potency is read from the fitted curve at half-maximal effect.

SMILES | activity change, negative = inhibition | Potency
CCOc1ccccc1NC(=O)C1CCCCN1S(=O)(=O)c1ccc(F)cc1 (stereo not given) | inconclusive: 2.43% | –
O=C(/C=C/c1ccco1)N(Cc1ccc(Cl)cc1)C1CCS(=O)(=O)C1 (stereo not given) | inactive: -4.3% | –
Cc1cccc(-n2c(SCC(=O)NCc3ccc4c(c3)OCO4)nc3ccccc3c2=O)c1 | inconclusive: 4.23% | –
CCOC(=O)N1CCN=C1SCc1ccc(Cl)c(Cl)c1 | – | inconclusive: 20 µM [falling, partial curve, poor fit]
CCNc1ccc(Br)cc(C(=O)/C=C/c2ccc3c(c2)OCO3)c1=O | inactive: -18% | –
Cc1ccc(NC(=O)Cn2c(=O)oc3ccccc32)cc1C | – | inconclusive: 3.55 µM [falling, full curve, poor fit]
Cc1ccc2nc(-c3cc(-c4ccccc4)no3)cn2c1 | inconclusive: 158% | –
COc1ccc(CCNC(=O)/C=C/c2ccco2)cc1OC | inactive: -0.532% | –
CCN(CC)S(=O)(=O)c1ccc2c(c1)nc(SC(C)C(N)=O)n2-c1ccc(OC)cc1 (stereo not given) | inconclusive: 30.6% | –
CNCCCCOc1ccc(C(C)(C)C)cc1Cl | – | inconclusive: 22.4 µM [falling, single point]
O=C(Nc1nc(-c2ccc(F)cc2)cs1)c1cccc(N2C(=O)CCC2=O)c1 | inconclusive: 4.05% | –
CCc1ccccc1NC(=O)c1cc(-c2ccc(F)cc2)on1 | inconclusive: 291% | –
Cc1cc(C)n(-c2ccc(C(=O)Nc3cccnc3)cc2)n1 | inconclusive: 14.3% | –
O=C(N/N=C/c1ccc[nH]1)c1cc(-c2ccc(Cl)cc2)nc2ccccc12 | inconclusive: 0.558% | –
COc1ccccc1NC(=O)N1CCC(CN2CCc3ccccc3C2)CC1 | inconclusive: 2.4% | –
CC(OC(=O)c1ccccc1N1C(=O)C2C3CCC(C3)C2C1=O)C(=O)c1ccccc1 (stereo not given) | inconclusive: 3.24% | –
COc1ccc(-c2nc(C#N)c(N3CCC(C)CC3)o2)cc1 | inconclusive: 3.2% | –
COC(=O)c1[nH]c2ccc(C)cc2c1NC(=O)CCN1CCN(C2CCCCC2)CC1 | inconclusive: 1.83% | –
CC1(C)C=C(c2ccc(C=O)s2)CC(C)(C)N1C=O | inconclusive: -1.98% | –
CCc1ccc(NC(=S)Nc2cccc(OC)c2)cc1 | inactive: 1.84% | –
COc1ccccc1/C=C/C(C)=O | inconclusive: -12.9% | –
CCN(C(=O)COC(=O)c1cc(-c2cccs2)nc2ccccc12)C1CCS(=O)(=O)C1 (stereo not given) | inconclusive: -2.72% | –
O=C(CN(CCc1ccccc1)Cc1ccccc1)Oc1ccccc1P(=O)(O)O | inactive: 3.57% | –
Cc1cccnc1NC(=S)NC(=O)c1cncc(Br)c1 | inconclusive: -29.3% | –
COc1ccc(/C=N\NC(=O)c2ccccc2Br)cc1COc1ccc(F)cc1 | inconclusive: -3.02% | –
COc1cc(CCN2C(=O)c3cccc4cccc(c34)C2=O)c(S(=O)(=O)NCCCO)cc1OC | inconclusive: -0.702% | –
CC(C)c1ccc(C2CC(=O)c3cnc(N4CCc5ccccc5C4)nc3C2)cc1 (stereo not given) | inconclusive: -0.88% | –

Five compounds picked at random from the list so far, as already listed:
SMILES | activity change, negative = inhibition | Potency
Cc1cc(C)n(-c2ccc(C(=O)Nc3cccnc3)cc2)n1 | inconclusive: 14.3% | –
COc1ccc(/C=N\NC(=O)c2ccccc2Br)cc1COc1ccc(F)cc1 | inconclusive: -3.02% | –
Cc1cccnc1NC(=S)NC(=O)c1cncc(Br)c1 | inconclusive: -29.3% | –
COc1ccccc1NC(=O)N1CCC(CN2CCc3ccccc3C2)CC1 | inconclusive: 2.4% | –
COC(=O)c1[nH]c2ccc(C)cc2c1NC(=O)CCN1CCN(C2CCCCC2)CC1 | inconclusive: 1.83% | –

3 entries out of the list, ordered by number of heavy atoms, high to low:
SMILES | activity change, negative = inhibition | Potency
COc1cc(CCN2C(=O)c3cccc4cccc(c34)C2=O)c(S(=O)(=O)NCCCO)cc1OC | inconclusive: -0.702% | –
O=C(CN(CCc1ccccc1)Cc1ccccc1)Oc1ccccc1P(=O)(O)O | inactive: 3.57% | –
CCOC(=O)N1CCN=C1SCc1ccc(Cl)c(Cl)c1 | – | inconclusive: 20 µM [falling, partial curve, poor fit]

Further structures:

SMILES | activity change, negative = inhibition | Potency
O=C(/C=C/c1ccc(Cl)cc1Cl)N1CCc2ccccc21 | inconclusive: 5.6% | –
COc1ccc(/C=C/CN2CCN(Cc3cccc(OC)c3)C(CCO)C2)cc1 (stereo not given) | – | inconclusive: 0.708 µM [falling, full curve, poor fit]
Cc1cc(Cl)cc2c(N=Nc3ccccc3C(=O)O)c(O)[nH]c12 | – | inconclusive: 3.16 µM [falling, partial curve, poor fit]
O=C(C[n+]1cn(C(F)F)c2ccccc21)c1ccc(Br)cc1 | – | inconclusive: 35.5 µM [falling, partial curve, poor fit]
COc1ccc(CCN(Cc2cccs2)S(=O)(=O)c2ccc(S(=O)(=O)N3CCC(C)CC3)cc2)cc1OC | inconclusive: -6.56% | –
Cc1cc(C(=O)N/N=C/c2cccs2)no1 | inconclusive: -0.83% | –
CCc1cccc(NC(=O)c2ccc3c(=O)n4c(nc3c2)CCCCC4)c1 | inactive: 0.0334% | –
CCOC(=O)c1sc(NC(=S)NC(=O)c2cccc(OC)c2)nc1C | – | inconclusive: 3.55 µM [falling, partial curve, poor fit]
CCC(C)(C(=O)NC1CCCC1)N(C(=O)CNC(C)=O)c1ccc(C)cc1 (stereo not given) | inconclusive: 0.862% | –
CC(C)(C)c1ccc(C(=O)Nc2ccc(C(=O)N3CCOCC3)cc2)cc1 | inconclusive: 1.85% | –
COC(=O)c1cccc(CSc2nc(-c3ccccc3)c(C#N)c(=O)[nH]2)c1 | inactive: 0.859% | –
O=C(N/N=C/c1ccccc1[N+](=O)[O-])c1ccc2nc[nH]c2c1 | – | inconclusive: 12.6 µM [falling, partial curve]
COc1ccc(/C=N/NC(=O)c2cccnc2)cc1CSc1nc2ccccc2s1 | – | inconclusive: 18.4 µM [cytotoxic, partial curve]
Cc1ccc(N(C(C)C(=O)N2CCCC2)S(C)(=O)=O)cc1 (stereo not given) | inconclusive: 3.83% | –
O=C(NCC1COc2ccccc2O1)c1cc2ccccc2o1 (stereo not given) | inconclusive: -10.1% | –
CCOC(=O)c1ccc(NS(=O)(=O)c2ccc(SC)cc2)cc1 | inactive: -0.961% | –
CS(=O)(=O)N1CCC(C(=O)Nc2ccccc2)CC1 | inconclusive: 2.63% | –
COCC(=O)N1CCN(c2cccc(C(F)(F)F)c2)CC1 | inconclusive: 2.93% | –
C=CCn1c(N/N=C/c2ccc(O)cc2)nc2ccccc2c1=O | inconclusive: 51.9% | –
O=Cc1cn(CCOc2ccccc2F)c2ccccc12 | inconclusive: -12.8% | –
CCOCCCNC(=O)Cn1cc2c(n1)CCCCC2 | inconclusive: 1.61% | –
Cc1ccc(C)c(Oc2cc(NN3CCCCC3)c([N+](=O)[O-])cc2[N+](=O)[O-])c1 | inactive: -6.31% | –
CC(=O)c1c(C)[nH]c(C(=O)OCC(=O)Nc2ccc(Cl)cc2[N+](=O)[O-])c1C | – | inconclusive: 32.6 µM [falling, partial curve, poor fit]
O=c1cc(-c2ccc(O)c(O)c2)oc2cc(O)c([C@@H]3O[C@H](CO)[C@@H](O)[C@H](O)[C@H]3O)c(O)c12 | inconclusive: 3.1% | –
CC1CC(C)CN(C(=O)c2ccc3c(c2)N(Cc2ccccc2)CCS3)C1 (stereo not given) | – | inconclusive: 14.6 µM [rising, partial curve, poor fit]
O=c1oc(-c2cccs2)nc2sc3c(c12)CCCC3 | – | inconclusive: 13 µM [falling, partial curve]
Cc1cc(C(=O)Nc2ccccc2C(=O)O)oc1C | inconclusive: 379% | –

SMILES | activity change, negative = inhibition | Potency
CC1(C)C(=O)OC(c2ccccc2)C(C)(C)C1=O (stereo not given) | inactive: -3.39% | –
COCCCNC(=O)c1ccc2nc3ccccc3c(=O)n2c1 | inconclusive: 9.16% | –
Nc1c(-c2n[nH]c(=S)n2-c2ccc(Cl)cc2Cl)cnn1-c1ccccc1 | inactive: -2.46% | –
COc1ccc(S(=O)(=O)n2nc(-c3ccc(Cl)cc3)cc2N)cc1 | inconclusive: 4.41% | –
COc1ccc(CCNC(=O)Cn2nnc(-c3ccc(N(C)C)cc3)n2)cc1OC | – | inconclusive: 23.1 µM [falling, partial curve, poor fit]
CS(=O)(=O)c1ccc(C(=O)OCC(=O)NCc2cccs2)cc1[N+](=O)[O-] | – | inconclusive: 6.51 µM [falling, partial curve, poor fit]
Cc1cc(SCC(=O)Nc2cccc(S(=O)(=O)N3CCOCC3)c2)nc2ccccc12 | inconclusive: -25.5% | –
CCOc1ccc(OCC(=O)Nc2nccs2)cc1 | – | inconclusive: 17.8 µM [falling, single point]
COc1ccc(/C=C/c2c([N+](=O)[O-])c(=O)n(C)c(=O)n2C)cc1OC | inactive: 0.155% | –
Cc1cc(C)c[n+](CC(=O)c2ccccc2)c1 | inactive: 0.192% | –
Cc1nc(N)nc(N/N=C/c2ccccc2)n1 | – | inconclusive: 35.5 µM [falling, single point]
O=C(NN=C1CCCC1)c1ccc(Br)cc1 | – | inconclusive: 3.98 µM [falling, full curve]
Cc1nc(CCN2C(=O)c3ccccc3C2=O)n[nH]1 | inconclusive: -10.1% | –
O=C1C(=O)N(CCN2CCOCC2)C(c2ccccn2)/C1=C(/O)c1ccc(F)cc1 (stereo not given) | inactive: 0.328% | –
Cc1ccc(C(=O)Oc2oc(-c3ccco3)nc2C=Nc2ccccc2)cc1 | – | inconclusive: 15.8 µM [falling, partial curve]
COc1ccc(CC(=O)Nc2c3c(nn2C(C)(C)C)CS(=O)C3)cc1 (stereo not given) | inconclusive: 17.2% | –
CCCCN(C)S(=O)(=O)c1cc2c3c(c1)CCC(=O)N3CCC2 | inconclusive: 1.7% | –
CCn1c(C(=O)N2CCC(C(=O)NCCCSC3CCCCC3)CC2)cc2sccc21 | – | inconclusive: 29.1 µM [falling, single point]
C(=N\N(Cc1ccccc1)c1ccccc1)/c1cccnc1 | – | inconclusive: 3.55 µM [falling, partial curve, poor fit]
Cc1nn(C)cc1CN(C)C(=O)CC12CC3CC(CC(C3)C1)C2 | inactive: 0.99% | –
Cc1cccc(N2CCN(C(=O)c3ccc4[nH]c(C)c(C)c4c3)CC2)c1C | – | inconclusive: 16.4 µM [falling, single point]
Cc1c(OCc2ccc(C(=O)O)cc2)ccc2c(-c3ccccc3)cc(=O)oc12 | inconclusive: -0.777% | –
CC(C)Cn1cnc2c(c(-c3ccccc3)c(-c3ccccc3)n2Cc2ccco2)c1=N | – | inconclusive: 3.26 µM [rising, full curve, poor fit]
Cn1c(=O)n(-c2cccc(Cl)c2)c(=O)c2c3c(sc21)COC(C)(C)C3 | inconclusive: 16% | –
C/C(=N\N=C(c1ccccc1)c1ccccc1)c1cccs1 | inconclusive: 15.5% | –
CCc1nnc(SCC(=O)Nc2ccccc2)n1CC1CCCO1 (stereo not given) | inactive: -4.64% | –
